Structures can show the parent of a compound that is named as a salt. ± gives the standard deviation of the averaged measurements. The list shows a part of the results. The data scatter; read single values as rough.

In the first test the test system is hAMSC donor 1. In words: transgenic luciferase activity (RLU/mg protein) fold change vs vehicle control (ratio); hAMSC are human adipose-derived mesenchymal stem cells given an EGFP-luciferase plasmid by lipofection; higher = more transgene expression. Particulars: priming compound concentration 1.7 µM.
With `CN(CCOc1ccc(CC2SC(=O)NC2=O)cc1)c1ccccn1` (centres undefined) [Rosiglitazone maleate], the transgenic luciferase activity came to 1.08 ± 0.037.

With `COc1cc(OC)c(C(=O)CCCN2CCCC2)c(OC)c1` [Buflomedil hydrochloride], the transgenic luciferase activity turned out to be 1.13 ± 0.34.

For `O=C(CCCN1CC=C(n2c(=O)[nH]c3ccccc32)CC1)c1ccc(F)cc1` [Droperidol], the transgenic luciferase activity came out at 0.768 ± 0.48. Still for that read-out and setting: next, `CN1[C@@H]2CC[C@H]1C[C@@H](OC(=O)c1c[nH]c3ccccc13)C2` [Tropisetron hydrochloride]: 1.61 ± 0.1; `CN(C)CC[C@@H](c1ccc(Br)cc1)c1ccccn1` [Dexbrompheniramine maleate]: 0.991 ± 0.16; `CC(C)[C@H](N)C(=O)OCCOCn1cnc2c(=O)nc(N)[nH]c21` [Valaciclovir hydrochloride]: 1.45 ± 0.53. With `CCn1cc(C(=O)O)c(=O)c2cc(F)c(N3CCN(C)CC3)cc21` [Pefloxacin mesylate], the transgenic luciferase activity worked out at 1.23 ± 0.58.

Another test has as its system hAMSC donor 2. The test is described as above. Particulars: priming compound concentration 0.2 µM.
As to `C[C@](N)(Cc1ccc(O)cc1)C(=O)O` [alpha-Methyl-L-tyrosine], the transgenic luciferase activity worked out at 0.539 ± 0.17. `COCCOC(=O)C1=C(C)NC(C)=C(C(=O)OC(C)C)C1c1cccc([N+](=O)[O-])c1` (centres undefined) [Nimodipine]: the transgenic luciferase activity stood at 0.945 ± 0.18. Regarding `CN(C)CCCC1(c2ccc(F)cc2)OCc2cc(C#N)ccc21` (centres undefined) [Citalopram hydrobromide], the transgenic luciferase activity is 0.864 ± 0.17. On the same count and under the same terms, as for `CN(C)CCc1c[nH]c2ccc(Cn3cncn3)cc12` [Rizatriptan benzoate], the figure is 1.19 ± 0.083; as for `Nc1ncn([C@@H]2O[C@H](CO)[C@@H](O)[C@H]2O)c(=O)n1` [5-Azacytidine], 1.15 ± 0.15. Same read-out and setting: as for `CN1CC(=O)N2[C@H](c3ccc4c(c3)OCO4)c3[nH]c4ccccc4c3C[C@@H]2C1=O` [Tadalafil], the figure is 0.834 ± 0.28; as for `O=c1c(O[C@@H]2O[C@H](CO)[C@@H](O)[C@H](O)[C@H]2O)c(-c2ccc(O)c(O)c2)oc2cc(O)cc(O)c12` [Isoquercitrin], 0.927 ± 0.055; as for `CN(C)[C@@H]1C(O)=C(C(N)=O)C(=O)[C@@]2(O)C(O)=C3C(=O)c4c(O)ccc(Cl)c4[C@@H](O)[C@H]3C[C@@H]12` [Demeclocycline], 1.13 ± 0.1. With `CCN1CCCC1CNC(=O)c1cc(S(=O)(=O)CC)c(N)cc1OC` (centres undefined) [Amisulpride], the transgenic luciferase activity came out at 0.736 ± 0.063. On to `CC1=C(C/C=C(\C)CCC[C@H](C)CCC[C@H](C)CCCC(C)C)C(=O)c2ccccc2C1=O` [Phylloquinone], for which the transgenic luciferase activity turned out to be 1.17 ± 0.2. On to `C[C@H](CS)C(=O)N1CCC[C@H]1C(=O)O` [Captopril], for which the transgenic luciferase activity was found to be 0.772 ± 0.2.

Consider `O=c1[nH]cc(F)c(=O)[nH]1` [5-Fluorouracil], for which the transgenic luciferase activity was 0.778 ± 0.1.

Take `CC1(C)S[C@@H]2[C@H](NC(=O)[C@H](N)c3ccc(O)cc3)C(=O)N2[C@H]1C(=O)O` [Amoxicillin]: the transgenic luciferase activity turned out to be 1.25 ± 0.03. Still for that read-out and setting: as for `CN1CCC[C@H]1c1cccnc1` [Nicotine], the figure is 0.663 ± 0.17; as for `CC1(C)O[C@@H]2[C@@H](CO[C@@]3(COS(N)(=O)=O)OC(C)(C)O[C@@H]23)O1` [Topiramate], 0.978 ± 0.23; as for `O=C(c1ccccc1)c1ccc2n1CCC2C(=O)O` (centres undefined) [Ketorolac tromethamine], 0.705 ± 0.35. With `CC(=O)N[C@H]1[C@H]([C@H](O)[C@H](O)CO)OC(C(=O)O)=C[C@@H]1NC(=N)N` [Zanamivir hydrate], the transgenic luciferase activity turned out to be 1.01 ± 0.38.

Still in this test, the particulars now being: priming compound concentration 1.7 µM.
On to `CN1[C@@H](CC(=O)c2ccccc2)CCC[C@H]1C[C@H](O)c1ccccc1` [Lobeline hydrochloride], for which the transgenic luciferase activity was 0.738 ± 0.27. On to `O=C(O)CCc1nc(-c2ccccc2)c(-c2ccccc2)o1` [Oxaprozin], for which the transgenic luciferase activity was 0.443 ± 0.09.

`OCCN1CCN(CCCN2c3ccccc3Sc3ccc(C(F)(F)F)cc32)CC1` [Fluphenazine dihydrochloride]: the transgenic luciferase activity was found to be 0.946 ± 0.2.

On to `CCN(CC)CCOc1ccc(C(=C(Cl)c2ccccc2)c2ccccc2)cc1` [Clomifene citrate], for which the transgenic luciferase activity came out at 0.512 ± 0.04. As for `N#Cc1ccc(C(c2ccc(C#N)cc2)n2cncn2)cc1` [Letrozole], the transgenic luciferase activity stood at 0.525 ± 0.14. Turning to `COc1cc([C@@H]2c3cc4c(cc3[C@@H](O[C@@H]3O[C@@H]5CO[C@@H](C)O[C@H]5[C@H](O)[C@H]3O)[C@H]3COC(=O)[C@H]23)OCO4)cc(OC)c1O` [Etoposide], the transgenic luciferase activity came to 0.825 ± 0.2. On the same count and under the same terms, next, `C[C@]12C[C@H](O)[C@H]3[C@@H](CCC4=CC(=O)CC[C@@]43C)[C@@H]1CC[C@@H]2C(=O)CO` [Corticosterone]: 1.33 ± 0.45. With `c1ccc2c(CC3=NCCN3)cccc2c1` [Naphazoline hydrochloride], the transgenic luciferase activity came out at 0.705 ± 0.56. Regarding `C[C@H]1O[C@@H](O[C@H]2[C@@H](O)C[C@H](O[C@H]3[C@@H](O)C[C@H](O[C@H]4CC[C@@]5(C)[C@H](CC[C@@H]6[C@@H]5C[C@@H](O)[C@]5(C)[C@@H](C7=CC(=O)OC7)CC[C@]65O)C4)O[C@@H]3C)O[C@@H]2C)C[C@H](O)[C@@H]1O` [Digoxin], the transgenic luciferase activity is 1.05 ± 0.71.

As for `CC#C[C@]1(O)CC[C@H]2[C@@H]3CCC4=CC(=O)CCC4=C3[C@@H](c3ccc(N(C)C)cc3)C[C@@]21C`, the transgenic luciferase activity turned out to be 0.809 ± 0.039. As to `COc1ccccc1N1CCN(CC(O)COc2cccc3ccccc23)CC1` (centres undefined) [Naftopidil], the transgenic luciferase activity came to 0.451 ± 0.24.

`CN1CCN(c2nc3cc(C(F)(F)F)ccc3n3cccc23)CC1`: the transgenic luciferase activity worked out at 0.649 ± 0.24. On the same count and under the same terms, as for `Nc1ncnc2c1ncn2[C@@H]1O[C@H](CO)C[C@@H]1O` [3'-Deoxydenosine], the figure is 0.831 ± 0.12.

As for `O=C1c2c(O)cc(O)cc2O[C@H](c2ccc(O)c(O)c2)[C@H]1O` (racemic) [Taxifolin-(+/-)], the transgenic luciferase activity is 0.597 ± 0.25. Take `CCOc1cc(CC(=O)N[C@@H](CC(C)C)c2ccccc2N2CCCCC2)ccc1C(=O)O` [Repaglinide]: the transgenic luciferase activity worked out at 0.596 ± 0.087.

Source of the values: the supplement of paper PMC7238544.
